These are yes or no findings as the source states them, for the method shown. In cells and extracts the contact can be indirect.
How the values were obtained:
[1] = molecular target: GST-WWE (Trp-Trp-Glu (WWE) domain of the RING-type E3 ubiquitin ligase RNF146/Iduna coupled to glutathione S-transferase) (UniProt Q9NTX7); assay: pull-down; GST-WWE or GST-WWE^R164A beads incubated overnight at 4 °C with lysates of HEK293T cells (transfected with Flag-Axin1 or Flag-Axin1ΔTBD; or untransfected, Wnt3A 0.5 h), S2R+ cells (Wg conditioned medium 1 h; white dsRNA control) or Drosophila embryos (stages 4-5 and 9); lysis or RIPA buffer with 1 μM ADP-HPD, protease and phosphatase inhibitors; four washes (50 mM Tris-HCl pH 8.0, 150 mM NaCl, 1% NP-40); immunoblot; only the target purified
[2] = molecular target: GST-WWE^R164A mutant control (UniProt Q9NTX7); assay: as above

Sequences of proteins named here, by UniProt entry; tags and fusion partners are left off. A change or cut given only in a name is not applied to a line headed by its entry. A line that says so, or that is headed by a name, gives the form on record, which may keep a tag or linker. Residues count along the entry.
UniProt Q9NTX7, residues 92-168: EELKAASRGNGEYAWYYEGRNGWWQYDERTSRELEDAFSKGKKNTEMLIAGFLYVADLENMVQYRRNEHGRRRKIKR
GST-WWE^R164A mutant control (Q9NTX7, form named): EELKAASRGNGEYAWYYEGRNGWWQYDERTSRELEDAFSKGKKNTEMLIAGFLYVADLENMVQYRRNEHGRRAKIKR
UniProt O35625: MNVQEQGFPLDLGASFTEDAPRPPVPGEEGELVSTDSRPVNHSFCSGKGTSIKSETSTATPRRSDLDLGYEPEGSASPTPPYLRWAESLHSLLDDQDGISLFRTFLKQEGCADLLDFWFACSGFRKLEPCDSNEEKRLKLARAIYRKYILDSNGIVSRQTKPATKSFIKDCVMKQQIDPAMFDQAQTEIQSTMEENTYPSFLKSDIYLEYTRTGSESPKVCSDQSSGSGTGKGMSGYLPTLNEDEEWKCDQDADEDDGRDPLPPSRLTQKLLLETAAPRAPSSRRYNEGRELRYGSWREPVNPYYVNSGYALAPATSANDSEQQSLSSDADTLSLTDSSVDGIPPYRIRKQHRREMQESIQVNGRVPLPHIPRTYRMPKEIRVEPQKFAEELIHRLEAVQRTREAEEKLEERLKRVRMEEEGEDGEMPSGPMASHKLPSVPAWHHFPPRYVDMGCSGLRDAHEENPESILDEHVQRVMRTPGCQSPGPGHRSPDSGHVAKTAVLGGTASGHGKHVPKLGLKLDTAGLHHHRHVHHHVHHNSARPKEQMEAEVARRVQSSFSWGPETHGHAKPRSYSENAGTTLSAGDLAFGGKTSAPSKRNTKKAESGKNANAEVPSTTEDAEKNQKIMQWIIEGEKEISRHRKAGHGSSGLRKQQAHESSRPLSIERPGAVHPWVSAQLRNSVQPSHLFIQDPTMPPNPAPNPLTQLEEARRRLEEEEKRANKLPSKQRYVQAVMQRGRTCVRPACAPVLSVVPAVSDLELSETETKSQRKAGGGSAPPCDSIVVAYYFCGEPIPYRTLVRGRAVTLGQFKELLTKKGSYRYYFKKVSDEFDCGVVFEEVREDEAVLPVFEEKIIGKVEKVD

- binding [1]: no binding
- binding [2]: no binding
Substance: Flag-mouse Axin1ΔTBD (from UniProt O35625)
